# From the supplement of paper PMC8728848
# The list shows a part of the results.
# B1: MCL (Mus musculus), Q9Z2H6 (protein)
# chain: MWLEESQMKSKGTRHPQLIPCVFAVVSISFLSACFISTCLVTHHYFLRWTRGSVVKLSDYHTRVTCIREEPQPGATGGTWTCCPVSWRAFQSNCYFPLNDNQTWHESERNCSGMSSHLVTINTEAEQNFVTQLLDKRFSYFLGLADENVEGQWQWVDKTPFNPHTVFWEKGESNDFMEEDCVVLVHVHEKWVWNDFPCHFEVRRICKLPGITFNWKPSK
# Assays:
# Assay in all cases: glycan array binding signal (z-score within array); higher = stronger binding
# Settings in all cases: glycan notation: IUPAC condensed, linker removed
# Fuc(a1-2)Gal = biological target: Fuc(a1-2)Gal
# How it was run: (§1)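 Columns mapping to the same glycan were averaged after glycan names were converted to IUPAC-condensed notation. The data come from 3228 arrays in the Consortium for Functional Glycomics database, limited to those with an available protein sequence. Binding is reported as a within-array Z-score averaged across arrays of one protein sequence and across linkers.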
# Fuc(a1-2)Gal(b1-3)GalNAc = biological target: Fuc(a1-2)Gal(b1-3)GalNAc
# How it was run: as §1
# [1] = biological target: Fuc(a1-2)Gal(b1-3)GalNAc(b1-3)Gal
# How it was run: as §1
# [2] = biological target: Fuc(a1-2)Gal(b1-3)GalNAc(b1-3)Gal(a1-4)Gal(b1-4)Glc
# How it was run: as §1
# [3] = biological target: Fuc(a1-2)Gal(b1-3)GalNAc(b1-4)[Neu5Ac(a2-3)]Gal(b1-4)Glc
# How it was run: as §1
# Fuc(a1-2)Gal(b1-3)GlcNAc = biological target: Fuc(a1-2)Gal(b1-3)GlcNAc
# How it was run: as §1
# [4] = biological target: Fuc(a1-2)Gal(b1-3)GlcNAc(b1-3)Gal(b1-4)Glc
# How it was run: as §1
# [5] = biological target: Fuc(a1-2)Gal(b1-3)[Fuc(a1-4)]GlcNAc
# How it was run: as §1
# Fuc(a1-2)Gal(b1-4)Glc = biological target: Fuc(a1-2)Gal(b1-4)Glc
# How it was run: as §1
# Fuc(a1-2)Gal(b1-4)Glc6S = biological target: Fuc(a1-2)Gal(b1-4)Glc6S
# How it was run: as §1
# Fuc(a1-2)Gal(b1-4)GlcNAc = biological target: Fuc(a1-2)Gal(b1-4)GlcNAc
# How it was run: as §1
# [6] = biological target: Fuc(a1-2)Gal(b1-4)GlcNAc(b1-3)Gal(b1-4)GlcNAc
# How it was run: as §1
# [7] = biological target: Fuc(a1-2)Gal(b1-4)GlcNAc(b1-3)Gal(b1-4)GlcNAc(b1-3)Gal(b1-4)GlcNAc
# How it was run: as §1
# [8] = biological target: Fuc(a1-2)Gal(b1-4)GlcNAc6S
# How it was run: as §1
# [9] = biological target: Fuc(a1-2)Gal(b1-4)[Fuc(a1-3)]GlcNAc
# How it was run: as §1
# [10] = biological target: Fuc(a1-2)Gal(b1-4)[Fuc(a1-3)]GlcNAc(b1-3)Gal(b1-4)[Fuc(a1-3)]GlcNAc
# How it was run: as §1
# [11] = biological target: Fuc(a1-2)Gal(b1-4)[Fuc(a1-3)]GlcNAc(b1-3)Gal(b1-4)[Fuc(a1-3)]GlcNAc(b1-3)Gal(b1-4)[Fuc(a1-3)]GlcNAc
# How it was run: as §1
# Fuc(a1-2)Gal6S(b1-4)Glc = biological target: Fuc(a1-2)Gal6S(b1-4)Glc
# How it was run: as §1
# [12] = biological target: Fuc(a1-2)Gal6S(b1-4)Glc6S
# How it was run: as §1
# [13] = biological target: Fuc(a1-2)Gal6S(b1-4)GlcNAc
# How it was run: as §1
# Fuc(a1-2)[Gal(a1-3)]Gal = biological target: Fuc(a1-2)[Gal(a1-3)]Gal
# How it was run: as §1
# [14] = biological target: Fuc(a1-2)[Gal(a1-3)]Gal(b1-3)GlcNAc
# How it was run: as §1
# [15] = biological target: Fuc(a1-2)[Gal(a1-3)]Gal(b1-4)Glc
# How it was run: as §1
# [16] = biological target: Fuc(a1-2)[Gal(a1-3)]Gal(b1-4)GlcNAc
# How it was run: as §1
# [17] = biological target: Fuc(a1-2)[Gal(a1-3)]Gal(b1-4)[Fuc(a1-3)]GlcNAc
# How it was run: as §1
# [18] = biological target: Fuc(a1-2)[Gal(a1-4)]Gal(b1-4)GlcNAc
# How it was run: as §1
# [19] = biological target: Fuc(a1-2)[GalNAc(a1-3)]Gal
# How it was run: as §1
# [20] = biological target: Fuc(a1-2)[GalNAc(a1-3)]Gal(b1-3)GlcNAc
# How it was run: as §1
# [21] = biological target: Fuc(a1-2)[GalNAc(a1-3)]Gal(b1-4)Glc
# How it was run: as §1
# [22] = biological target: Fuc(a1-2)[GalNAc(a1-3)]Gal(b1-4)GlcNAc
# How it was run: as §1
# [23] = biological target: Fuc(a1-2)[GalNAc(a1-3)]Gal(b1-4)[Fuc(a1-3)]GlcNAc
# How it was run: as §1
# [24] = biological target: Fuc(a1-2)[GalNAc(a1-4)]Gal(b1-4)GlcNAc
# How it was run: as §1
# [25] = biological target: Fuc(a1-2)[GalNAc(b1-3)]Gal
# How it was run: as §1
# Fuc(a1-3)GlcNAc = biological target: Fuc(a1-3)GlcNAc
# How it was run: as §1
# [26] = biological target: Fuc(a1-3)[Gal(b1-4)]Glc6S
# How it was run: as §1
# [27] = biological target: Fuc(a1-3)[Gal(b1-4)]GlcNAc
# How it was run: as §1
# [28] = biological target: Fuc(a1-3)[Gal(b1-4)]GlcNAc(b1-2)Man(a1-3)[Fuc(a1-3)[Gal(b1-4)]GlcNAc(b1-2)Man(a1-6)]Man(b1-4)GlcNAc(b1-4)GlcNAc
# How it was run: as §1
# [29] = biological target: Fuc(a1-3)[Gal(b1-4)]GlcNAc(b1-2)Man(a1-6)[Gal(b1-4)GlcNAc(b1-2)Man(a1-3)]Man(b1-4)GlcNAc(b1-4)GlcNAc
# How it was run: as §1
# [30] = biological target: Fuc(a1-3)[Gal(b1-4)]GlcNAc(b1-3)Gal(b1-3)[Fuc(a1-4)]GlcNAc
# How it was run: as §1
# [31] = biological target: Fuc(a1-3)[Gal(b1-4)]GlcNAc(b1-4)Gal(b1-4)[Fuc(a1-3)]GlcNAc
# How it was run: as §1
# [32] = biological target: Fuc(a1-3)[Gal(b1-4)]GlcNAc(b1-4)Gal(b1-4)[Fuc(a1-3)]GlcNAc(b1-4)Gal(b1-4)[Fuc(a1-3)]GlcNAc
# How it was run: as §1
# [33] = biological target: Fuc(a1-3)[Gal(b1-4)]GlcNAc6S
# How it was run: as §1
# [34] = biological target: Fuc(a1-3)[Gal3S(b1-4)]Glc6S
# How it was run: as §1
# [35] = biological target: Fuc(a1-3)[Gal3S(b1-4)]GlcNAc
# How it was run: as §1
# [36] = biological target: Fuc(a1-3)[Gal3S(b1-4)]GlcNAc6S
# How it was run: as §1
binder,measurement,setting,value
B1,glycan array binding signal (z-score),Fuc(a1-2)Gal,0.017
same,glycan array binding signal (z-score),Fuc(a1-2)Gal(b1-3)GalNAc,-0.088
same,glycan array binding signal (z-score),[1],0.423
same,glycan array binding signal (z-score),[2],0.494
same,glycan array binding signal (z-score),[3],0.406
same,glycan array binding signal (z-score),Fuc(a1-2)Gal(b1-3)GlcNAc,-0.16
same,glycan array binding signal (z-score),[4],0.432
same,glycan array binding signal (z-score),[5],-0.857
same,glycan array binding signal (z-score),Fuc(a1-2)Gal(b1-4)Glc,-0.61
same,glycan array binding signal (z-score),Fuc(a1-2)Gal(b1-4)Glc6S,0.132
same,glycan array binding signal (z-score),Fuc(a1-2)Gal(b1-4)GlcNAc,0.364
same,glycan array binding signal (z-score),[6],-0.7
same,glycan array binding signal (z-score),[7],-0.044
same,glycan array binding signal (z-score),[8],-0.355
same,glycan array binding signal (z-score),[9],-0.248
same,glycan array binding signal (z-score),[10],0.521
same,glycan array binding signal (z-score),[11],1.03
same,glycan array binding signal (z-score),Fuc(a1-2)Gal6S(b1-4)Glc,-0.628
same,glycan array binding signal (z-score),[12],0.194
same,glycan array binding signal (z-score),[13],-0.015
same,glycan array binding signal (z-score),Fuc(a1-2)[Gal(a1-3)]Gal,-0.163
same,glycan array binding signal (z-score),[14],-0.331
same,glycan array binding signal (z-score),[15],-0.321
same,glycan array binding signal (z-score),[16],-0.79
same,glycan array binding signal (z-score),[17],0.241
same,glycan array binding signal (z-score),[18],-0.106
same,glycan array binding signal (z-score),[19],-0.254
same,glycan array binding signal (z-score),[20],0.999
same,glycan array binding signal (z-score),[21],-0.309
same,glycan array binding signal (z-score),[22],-0.144
same,glycan array binding signal (z-score),[23],-0.692
same,glycan array binding signal (z-score),[24],-0.24
same,glycan array binding signal (z-score),[25],-0.276
same,glycan array binding signal (z-score),Fuc(a1-3)GlcNAc,0.207
same,glycan array binding signal (z-score),[26],0.025
same,glycan array binding signal (z-score),[27],-0.249
same,glycan array binding signal (z-score),[28],-0.322
same,glycan array binding signal (z-score),[29],5.26
same,glycan array binding signal (z-score),[30],0.601
same,glycan array binding signal (z-score),[31],-0.359
same,glycan array binding signal (z-score),[32],-0.559
same,glycan array binding signal (z-score),[33],-0.78
same,glycan array binding signal (z-score),[34],-0.456
same,glycan array binding signal (z-score),[35],0.253
same,glycan array binding signal (z-score),[36],0.053

# Reformatted bar-delimited: entries from further up
binder | measurement | setting | value
B1 | glycan array binding signal (z-score) | [10] | 0.521
same | glycan array binding signal (z-score) | [11] | 1.03
same | glycan array binding signal (z-score) | Fuc(a1-2)Gal6S(b1-4)Glc | -0.628
